Reference: doi:10.1101/2021.03.06.434066
No constants are given. Whether binding was seen depends on the method and setting. In cells and extracts the contact can be indirect. A result given as binding can be weak or reduced; the word gives no strength.

By UniProt entry, the sequences of proteins in these tests, tags left out. Where a name states a change or a piece, a line headed by the entry shows the natural chain unless it says otherwise.
UniProt P62491: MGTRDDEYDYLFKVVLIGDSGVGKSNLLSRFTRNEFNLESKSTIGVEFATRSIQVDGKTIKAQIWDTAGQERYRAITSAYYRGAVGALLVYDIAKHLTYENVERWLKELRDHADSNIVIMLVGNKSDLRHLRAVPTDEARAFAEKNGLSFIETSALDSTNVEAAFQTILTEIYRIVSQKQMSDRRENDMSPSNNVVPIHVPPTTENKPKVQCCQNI
UniProt Q8TBN0: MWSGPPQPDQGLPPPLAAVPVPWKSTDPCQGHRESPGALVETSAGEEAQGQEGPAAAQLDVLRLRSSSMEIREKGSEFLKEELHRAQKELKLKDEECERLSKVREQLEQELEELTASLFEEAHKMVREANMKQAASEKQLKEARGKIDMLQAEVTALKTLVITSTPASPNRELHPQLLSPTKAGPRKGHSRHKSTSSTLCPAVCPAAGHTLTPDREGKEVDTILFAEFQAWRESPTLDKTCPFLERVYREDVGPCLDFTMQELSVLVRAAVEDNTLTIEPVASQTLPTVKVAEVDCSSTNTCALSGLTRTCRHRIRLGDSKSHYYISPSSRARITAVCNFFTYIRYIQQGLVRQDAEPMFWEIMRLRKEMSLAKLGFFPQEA

Columns and labels:
mCherry-Rab11a = mCherry-Rab11a (UniProt P62491); experiment: co-IP
GRABΔ223-GFP = GRABΔ223-GFP (UniProt Q8TBN0); experiment: co-IP

Row | Substance | binding (mCherry-Rab11a) | binding (GRABΔ223-GFP)
1 | GRABΔ223-GFP (from UniProt Q8TBN0) | binds | 
2 | mCherry-Rab11a (from UniProt P62491 1-216) |  | binds
